# Measured values reported in the supplement of paper PMC7024190.
# Structures can show the parent of a compound that is named as a salt. Some of the results follow. Single values are uncertain here, since repeats match poorly.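 Human embryonic kidney cells were transiently transfected with a plasmid bearing a Renilla luciferase gene under the HSV-TK promoter. This first-round screen tests roughly ten thousand compounds for ones that increase reporter output.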
# Test system: HEK 293FT
# Test: log relative Renilla luciferase luminescence (reporter expression vs reference, reference not stated) (log (base not stated)); higher = higher recombinant reporter expression
# Conditions: 10 µM; time after transfection 48 h
row,Structure (SMILES),log
1,NCc1ccccc1CC(=O)N[C@@H]1C(=O)N2C(C(=O)O)=C(CSc3nnnn3CC(=O)O)CS[C@H]12 [Ceforanide],0.02
2,C[N+]1(C)CCC(OC(=O)C(O)(c2ccccc2)C2CCCC2)C1 (centres undefined) [Glycopyrrolate],-0.0555
3,N#Cc1ccc(C(c2ccc(C#N)cc2)n2cncn2)cc1 [Letrozole],0.0444
4,Clc1ccc(CCC(Cn2ccnc2)Sc2c(Cl)cccc2Cl)cc1 (centres undefined) [Butoconazole nitrate],-0.0974
5,O=C(O)Cc1ccc(-c2ccccc2)cc1 [Felbinac],0.0262
6,C[C@@H]1C[C@H]2[C@@H]3C[C@H](F)C4=CC(=O)C=C[C@]4(C)[C@@]3(F)[C@@H](O)C[C@]2(C)[C@@]1(O)C(=O)CO [Flumethasone],-0.0157
7,O=C(O)c1cn(-c2ccc(F)cc2)c2cc(N3CCNCC3)c(F)cc2c1=O [Sarafloxacin],0.104
8,O=C1c2c(O)cccc2Cc2cccc(O)c21 [Anthralin],0.0344
9,COc1cc(C(=O)OCCCN2CCCN(CCCOC(=O)c3cc(OC)c(OC)c(OC)c3)CC2)cc(OC)c1OC [Dilazep dihydrochloride],0.148
10,CN(C)CCCN1c2ccccc2Sc2ccc(C(F)(F)F)cc21 [Triflupromazine hydrochloride],0.102
11,CC(N/C(=N\C#N)Nc1ccncc1)C(C)(C)C (centres undefined) [Pinacidil],0.163
12,CCCCC(O)c1ccccc1 (centres undefined) [Fenipentol],-0.0739
13,CCN(CC)CCOC(=O)C1(C2CCCCC2)CCCCC1 [Dicyclomine hydrochloride],0.0657
14,C=CC(N)CCC(=O)O (centres undefined) [Vigabatrin],-0.0288
15,NS(=O)(=O)c1cc(C2(O)NC(=O)c3ccccc32)ccc1Cl (centres undefined) [Chlorthalidone],-0.416
16,CCN[C@H]1CN(CCCOC)S(=O)(=O)c2sc(S(N)(=O)=O)cc21 [Brinzolamide],0.115
17,Cc1ncc(C[n+]2csc(CCO)c2C)c(N)n1 [Thiamine hydrochloride],0.205
18,CC(C)c1c(C(=O)Nc2ccccc2)c(-c2ccccc2)c(-c2ccc(F)cc2)n1CC[C@@H](O)C[C@@H](O)CC(=O)O [Atorvastatin],0.0657
19,CC(=O)OCC(=O)[C@@]1(O)CC[C@H]2[C@@H]3CCC4=CC(=O)CC[C@]4(C)[C@H]3[C@@H](O)C[C@@]21C [Cortisol acetate],-0.0974
20,CC[N+](C)(CC)CCOC(=O)C1c2ccccc2Oc2ccccc21 [Methantheline bromide],0.0554
21,CCCCN(CCCC)CCCOC(=O)c1ccc(N)cc1 [Butacaine],-0.222
22,COC(=O)Nc1nc2cc(C(=O)c3cccs3)ccc2[nH]1 [Nocodazole],-0.106
23,Cc1ccc(C(=O)c2ccc(CC(=O)O)n2C)cc1 [Tolmetin sodium salt dihydrate],0.0467
24,CC(=O)OCC(=O)[C@@]1(O)CC[C@H]2[C@@H]3CCC4=CC(=O)CC[C@]4(C)[C@@]3(F)[C@@H](O)C[C@@]21C [Fludrocortisone acetate],-0.271
25,Cc1cn[nH]c1 [Fomepizole],0.0437

row,Structure (SMILES),log
1,CCCOc1cc(N)ccc1C(=O)OCCN(CC)CC [Propoxycaine hydrochloride],0.0437
2,OC(Cn1cncn1)(Cn1cncn1)c1ccc(F)cc1F [Fluconazole],-0.0312
3,CC[N+](C)(C)c1cccc(O)c1 [Edrophonium chloride],0.00301
4,CN1CCC(=C2c3ccccc3C=Cc3ccccc32)CC1 [Cyproheptadine hydrochloride],0.0795
5,N=C(N)NC(=N)NCCc1ccccc1 [Phenformin hydrochloride],-0.0328
6,CC(C)(C)NC[C@@H](O)COc1cccc2c1CCCC2=O [(+) -Levobunolol hydrochloride],0.0544
7,CO[C@H]1/C=C/O[C@@]2(C)Oc3c(C)c(O)c4c(O)c(c(/C=N/N5CCN(C6CCCC6)CC5)c(O)c4c3C2=O)NC(=O)/C(C)=C\C=C\[C@H](C)[C@H](O)[C@@H](C)[C@@H](O)[C@@H](C)[C@H](OC(C)=O)[C@@H]1C [Rifapentine],0.0241
8,C[C@H]1O[C@H](O[C@H]2[C@H](O)[C@@H](O)[C@@H](O[C@H]3[C@H](O)[C@@H](O)C(O)O[C@@H]3CO)O[C@@H]2CO)[C@H](O)[C@@H](O)[C@@H]1N[C@H]1C=C(CO)[C@@H](O)[C@H](O)[C@H]1O (some centres undefined) [Acarbose],-0.0311
9,NNCCc1ccccc1 [Phenelzine sulfate],0.0849
10,CCCc1cc(C(N)=S)ccn1 [Prothionamide],-0.126
11,CC(=O)S[C@@H]1CC2=CC(=O)CC[C@]2(C)[C@H]2CC[C@@]3(C)[C@@H](CC[C@@]34CCC(=O)O4)[C@H]12 [Spironolactone],-0.00861
12,CC(Cc1cccc(C(F)(F)F)c1)NCCOC(=O)c1ccccc1 (centres undefined) [Benfluorex hydrochloride],0.0863
13,CNc1ncnc2c1ncn2[C@@H]1O[C@H](CO)[C@@H](O)[C@H]1O [N6-methyladenosine],-0.0154
14,"OCC(O)CN1CCN(c2ccccc2)CC1 (racemic) [Dropropizine (R,S)]",-0.0265
15,CC(C)(C)C(=O)OCOC(=O)[C@@H]1N2C(=O)[C@@H](/N=C/N3CCCCCC3)[C@H]2SC1(C)C [Pivmecillinam hydrochloride],0.00952
16,c1ccc2c(c1)CCCC2C1=NCCN1 (centres undefined) [Tetrahydrozoline hydrochloride],0.124
17,C[C@@H](O)[C@H]1C(=O)N2C(C(=O)O)=C(SCCNC=N)C[C@H]12 [Imipenem],-0.0407
18,CCCCCN(C)CCC(O)(P(=O)(O)O)P(=O)(O)O [Ibandronate sodium],0.177
19,O=C1NCCN1c1ncc([N+](=O)[O-])s1 [Niridazole],0.0157
20,C1N2CN3CN1CN(C2)C3 [Methenamine],0.0157
21,C=C(CC)C(=O)c1ccc(OCC(=O)O)c(Cl)c1Cl [Ethacrynic acid],0.0932
22,Nc1ccc(S(=O)(=O)NC(=O)c2ccccc2)cc1 [Sulfabenzamide],0.212
23,CS(=O)(=O)c1ccc([C@@H](O)[C@@H](CF)NC(=O)C(Cl)Cl)cc1 [Florfenicol],0.0842
24,CCN(CC)CCCC(C)Nc1ccnc2cc(Cl)ccc12 (centres undefined) [Chloroquine diphosphate],0.148
25,CC(C(=O)O)c1cccc(Oc2ccccc2)c1 (centres undefined) [Fenoprofen calcium salt dihydrate],0.0196

row,Structure (SMILES),log
1,CCCc1ncc(C[n+]2ccccc2C)c(N)n1 [Amprolium hydrochloride],0.0914
2,CC(=O)OCC(=O)NCCCOc1cccc(CN2CCCCC2)c1 [Roxatidine Acetate HCl],-0.404
3,CCn1cc(C(=O)O)c(=O)c2cc(F)c(N3CCNCC3)nc21 [Enoxacin],0.122
4,c1ccc(CC2=NCCN2)cc1 [Tolazoline hydrochloride],0.15
5,CC(C)(Oc1ccc(CCNC(=O)c2ccc(Cl)cc2)cc1)C(=O)O [Bezafibrate],0.0554
6,OCCN1CCN(CCCN2c3ccccc3Sc3ccc(C(F)(F)F)cc32)CC1 [Fluphenazine dihydrochloride],0.159
7,O=C(O)CCc1nc(-c2ccccc2)c(-c2ccccc2)o1 [Oxaprozin],0.0612
8,Clc1ccc2c(c1)C(N1CCNCC1)=Nc1ccccc1O2 [Amoxapine],-1.58
9,O=C1c2ccccc2C(=O)C1c1ccccc1 [Phenindione],0.0676
10,CC[C@H]1OC(=O)[C@H](C)[C@@H](O[C@H]2C[C@@](C)(OC)[C@@H](O)[C@H](C)O2)[C@H](C)[C@@H](O[C@@H]2O[C@H](C)C[C@H](N(C)C)[C@H]2O)[C@](C)(O)C[C@@H](C)C(=O)[C@H](C)[C@@H](O)[C@]1(C)O [Erythromycin],0.0739
11,CO[C@H]1/C=C/O[C@@]2(C)Oc3c(C)c(O)c4c(O)c(c(/C=N/N5CCN(C)CC5)c(O)c4c3C2=O)NC(=O)/C(C)=C\C=C\[C@H](C)[C@H](O)[C@@H](C)[C@@H](O)[C@@H](C)[C@H](OC(C)=O)[C@@H]1C [Rifampicin],0.174
12,Cc1c(Cl)cccc1Nc1ccccc1C(=O)O [Tolfenamic acid],0.121
13,CCCSc1ccc2[nH]c(NC(=O)OC)nc2c1 [Albendazole],-0.22
14,Cc1ccc(N(CC2=NCCN2)c2cccc(O)c2)cc1 [Phentolamine hydrochloride],0.0641
15,CCc1ccc(CCOc2ccc(CC3SC(=O)NC3=O)cc2)nc1 (centres undefined) [Pioglitazone],0.00465
16,CN(C)[C@@H]1C(O)=C(C(N)=O)C(=O)[C@@]2(O)C(O)=C3C(=O)c4c(O)cccc4[C@@](C)(O)[C@H]3C[C@@H]12 [Tetracycline hydrochloride],0.0795
17,COCCCC/C(=N\OCCN)c1ccc(C(F)(F)F)cc1 [Fluvoxamine maleate],0.0806
18,C[C@]12CCC(=O)C=C1CC[C@@H]1[C@@H]2C(=O)C[C@@]2(C)[C@H]1CC[C@]2(O)C(=O)CO [Cortisone],0.0283
19,CCOC(=O)N1CCC(=C2c3ccc(Cl)cc3CCc3cccnc32)CC1 [Loratadine],0.0842
20,COc1ccc(CC(C)NCC(O)c2ccc(O)c(NC=O)c2)cc1 (centres undefined) [Formoterol fumarate],-0.00598
21,CN1CCN(CCCN2c3ccccc3Sc3ccc(S(=O)(=O)N(C)C)cc32)CC1 [Thioproperazine dimesylate],0.124
22,O=C(O)Cc1ccccc1Nc1c(Cl)cccc1Cl [Diclofenac sodium],-0.111
23,C[C@@H](c1ncncc1F)[C@](O)(Cn1cncn1)c1ccc(F)cc1F [Voriconazole],0.00628
24,CC(=O)Oc1cc(C(F)(F)F)ccc1C(=O)O [Triflusal],0.14

# Shown with tabs: 5 of the compounds above
row	Structure (SMILES)	log
3	CCn1cc(C(=O)O)c(=O)c2cc(F)c(N3CCNCC3)nc21 [Enoxacin]	0.122
4	c1ccc(CC2=NCCN2)cc1 [Tolazoline hydrochloride]	0.15
11	CO[C@H]1/C=C/O[C@@]2(C)Oc3c(C)c(O)c4c(O)c(c(/C=N/N5CCN(C)CC5)c(O)c4c3C2=O)NC(=O)/C(C)=C\C=C\[C@H](C)[C@H](O)[C@@H](C)[C@@H](O)[C@@H](C)[C@H](OC(C)=O)[C@@H]1C [Rifampicin]	0.174
19	CCOC(=O)N1CCC(=C2c3ccc(Cl)cc3CCc3cccnc32)CC1 [Loratadine]	0.0842
20	COc1ccc(CC(C)NCC(O)c2ccc(O)c(NC=O)c2)cc1 (centres undefined) [Formoterol fumarate]	-0.00598
